Measurements from PubChem BioAssay AID2685 (National Center for Advancing Translational Sciences (NCATS), 2010).
This is one part of the list. These are further read-outs of the screen, such as a control signal, another cell line or another target. No call is given for them. The list favours compounds with an active or inconclusive main result. The note in brackets gives the kind of curve behind each potency; many fits are weak.

Assay: qHTS Assay for Lipid Storage Modulators in Drosophila S3 Cells;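 as to cell number change: cells counted by Cell Tracker Red CMTPX staining in the red channel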
Conditions: BODIPY lipid droplet fluorescence, 18-24 h; for cell number change: measured here: cell count max response, cells fed with added oleic acid
Procedure, shortened: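 Drosophila S3 cells got compounds at several concentrations plus oleic acid (400 uM solution). Laser-scanning cytometry with 488 nm excitation read lipid droplets at 500-530 nm and cells at 575-640 nm. Percent activity was relative to 20 uM Triacsin C.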

[1] = measured here: cell number channel AC50, cells fed with added oleic acid
[2] = measured here: lipid fluorescence (Fed channel) AC50, cells fed with added oleic acid

SMILES | cell number change [%] | AC50 [1] | AC50 [2]
O=C(Cc1ccccc1)N1CCC(c2ccccc2)C1 (configuration not stated) | -34.1 | 0.13 µM [falling, full curve] | 0.146 µM [falling, full curve]
Cn1ccnc1SCC(=O)Nc1ccc(Oc2ccccc2)cc1 | -19.1 | – | –
Nc1ncnc2c1ncn2[C@@H]1O[C@H](COS(=O)(=O)O)[C@@H](O)[C@H]1O | -3.25 | – | 20.6 µM [rising, single point]
COc1ccc2c(=O)c(C(=O)NCc3ccccc3)c[nH]c2c1 | -21.3 | – | 25.9 µM [falling, single point]
Cc1ccc(OCC(=O)NNC(=O)c2ccccc2OCc2c(C)noc2C)cc1 | – | – | 2.31 µM [rising, partial curve]
N#CCCN(C(=O)COC(=O)CNS(=O)(=O)c1ccc2ccccc2c1)c1ccccc1 | -7.76 | – | 0.00731 µM [rising, full curve, poor fit]
CC1CCC(N2CCN(C(=O)c3ccccc3F)CC2)CC1 (configuration not stated) | -1.01 | – | 4.61 µM [rising, full curve, poor fit]
CCOC(=O)c1c(-c2ccccc2)oc2ccc(OCC(=O)NNC(=O)CCCC(=O)O)cc12 | 8.52 | – | 0.00517 µM [rising, full curve, poor fit]
Cc1nc2ccc([N+](=O)[O-])cc2c(=O)n1Cc1cccc(F)c1 | -10.8 | – | –
CC(CCc1ccccc1)NC(=O)C(Cc1ccccc1)NC(N)=O (configuration not stated) | 4.76 | – | 6.51 µM [rising, single point]
COc1ccc(CCNC(=O)CCc2nc3ccccc3[nH]2)cc1OC | 37.2 | 8.2 µM [rising, partial curve, poor fit] | –
O=C(NC1CCCC1)C(c1ccc(Cl)cc1)N1CCOCC1 (configuration not stated) | 18.5 | – | –
CC(OC(=O)CCCN=C1NS(=O)(=O)c2ccccc21)C(=O)NC1CCCCC1C (configuration not stated) | 9.37 | – | 29.1 µM [falling, single point]
CCCCN(CC)CCCNC(=O)C1c2ccccc2C(=O)N(C)C1c1cn(C)c2ccccc12 (configuration not stated) | -124 | 25.9 µM [falling, partial curve] | 29.1 µM [falling, partial curve]
C[C@@]12CCC[C@@](C)(C(=O)O)C1CC[C@@]13C[C@@H](NCc4ccccc4)[C@@](C)(CCC12)C3 (some centres not stated) | 18.8 | – | 16.4 µM [falling, single point]
CCOC(=O)C1(CCCc2ccccc2)CCN(C(=O)CSC)CC1 | -30.1 | 16.4 µM [falling, partial curve, poor fit] | 4.61 µM [falling, single point]
O=C1C2C3C=CC(C3)C2C(=O)N1c1ccc2ccccc2c1 (configuration not stated) | -4.39 | – | 1.84 µM [falling, partial curve]
O=C(COC(=O)c1ccc2c(c1)OCCO2)NC1CCCCC1 | -17.4 | – | –
CCCCc1nc2cc(C(=O)N3CCCC(OCCC)C3)ccc2o1 (configuration not stated) | -10.5 | – | –
Nn1c(=O)c2ccccc2n2c(SCc3ccc(C(F)(F)F)cc3)nnc12 | 11.6 | – | 29.1 µM [rising, single point]

Three of the compounds above, comma-delimited.
SMILES,cell number change [%],AC50 [1],AC50 [2]
Nc1ncnc2c1ncn2[C@@H]1O[C@H](COS(=O)(=O)O)[C@@H](O)[C@H]1O,-3.25,–,"20.6 µM [rising, single point]"
COc1ccc2c(=O)c(C(=O)NCc3ccccc3)c[nH]c2c1,-21.3,–,"25.9 µM [falling, single point]"
Cc1ccc(OCC(=O)NNC(=O)c2ccccc2OCc2c(C)noc2C)cc1,–,–,"2.31 µM [rising, partial curve]"

More records

SMILES | cell number change [%] | AC50 [1] | AC50 [2]
Cc1ccc(C(=O)N(c2ccccc2)C2CC(C)N(C(=O)c3ccco3)c3ccccc32)cc1 (configuration not stated) | 59.1 | 14.6 µM [rising, partial curve] | –
CC(C)(C)C(=O)N1CCC[C@@]1(CO)C(=O)O | 0.431 | 3.26 µM [falling, single point] | –
O=C(CSc1nc(-c2cccs2)cc(C(F)(F)F)n1)NCc1ccco1 | -31 | 5.17 µM [falling, full curve, poor fit] | 9.2 µM [falling, partial curve]
CCCNC(=O)C(Cc1ccc(Cl)cc1)NC(=O)c1ccc(C#N)cc1 (configuration not stated) | 16.3 | 0.00411 µM [falling, full curve, poor fit] | –
CC1=C(C(=O)OC(C)C)C(c2cccs2)n2ncnc2N1 (configuration not stated) | – | – | 0.0184 µM [rising, full curve, poor fit]
CC(=O)c1cccc(N=C2NC(=O)CS2)c1 | – | – | 6.51 µM [falling, single point]
CC(=O)N1CCN(C(=O)c2cccc(S(=O)(=O)N3CCOCC3)c2)CC1 | -6.23 | – | 32.6 µM [rising, single point]
Cc1nnc(SCC(=O)NC2CCCC2)n1-c1ccccc1 | -8.1 | 2.59 µM [falling, partial curve] | 0.651 µM [falling, partial curve, poor fit]
CCCOc1ccc(-c2nc(N3CCN(CC)CC3)c3ccccc3n2)cc1 | 18.1 | – | –
COc1ccc(CNC(=O)c2cccc(S(=O)(=O)N3CCN(c4ccc(F)cc4)CC3)c2)cc1 | 24.1 | – | –
Cc1[nH]c2ccccc2c1C(=O)COC(=O)c1ccc([N+](=O)[O-])s1 | -12.4 | – | –
COc1ccc(N(CC(=O)NCc2ccccc2)S(=O)(=O)c2c(C)n[nH]c2C)cc1 | 24 | 0.00411 µM [rising, full curve, poor fit] | –
COc1cc(/C=N/NC(=O)CCN2CCN(c3ccccc3)CC2)cc(OC)c1OC | -0.418 | – | 4.11 µM [falling, partial curve]
CC1CCN(CCCCOc2ccc(C(=O)c3ccccc3)cc2)CC1 | -0.3 | – | 0.082 µM [rising, full curve, poor fit]
O=C(C1CCC(CNc2nc(=S)[nH]c3ccccc23)CC1)N1CCN(c2ccc(F)cc2)CC1 (configuration not stated) | 35.9 | – | 0.103 µM [rising, full curve, poor fit]
CN(C)/C=C/C(=O)c1ccncc1 | -24.7 | 3.26 µM [falling, full curve, poor fit] | 2.91 µM [falling, full curve]
Cc1cc(OCC(=O)N2CCCC2)ccc1Cl | -11.9 | – | –
COc1ccc(-n2c(N)cc(=O)nc2SCC(=O)N2CCN(c3ccccc3)CC2)cc1 | -0.495 | – | 6.51 µM [falling, partial curve, poor fit]
Cc1cc(Br)ccc1NC(=O)CN(C)C(=O)c1ccc2ccccc2n1 | -5.89 | – | 11.6 µM [rising, partial curve]
